Experiment [1] addresses Myosin-1c (human (endogenous in SV589 and H1299)) (UniProt O00159). Put plainly: co-IP; endogenous proteins from SV589 fibroblast lysate (TETN/OG: 25 mM Tris-HCl pH 7.5, 5 mM EDTA, 150 mM NaCl, 1% Triton X-100, 60 mM octylglucoside, with 10 mM CaCl2); 10 ug rabbit anti-cavin-3 or anti-myosin-1c, 1 hr 37°C, Protein A/G beads 4 hr 4°C; washes with 500 mM and 250 mM NaCl; immunoblot.

Amino acid sequences for entries named in this document (tags omitted).
UniProt O00159: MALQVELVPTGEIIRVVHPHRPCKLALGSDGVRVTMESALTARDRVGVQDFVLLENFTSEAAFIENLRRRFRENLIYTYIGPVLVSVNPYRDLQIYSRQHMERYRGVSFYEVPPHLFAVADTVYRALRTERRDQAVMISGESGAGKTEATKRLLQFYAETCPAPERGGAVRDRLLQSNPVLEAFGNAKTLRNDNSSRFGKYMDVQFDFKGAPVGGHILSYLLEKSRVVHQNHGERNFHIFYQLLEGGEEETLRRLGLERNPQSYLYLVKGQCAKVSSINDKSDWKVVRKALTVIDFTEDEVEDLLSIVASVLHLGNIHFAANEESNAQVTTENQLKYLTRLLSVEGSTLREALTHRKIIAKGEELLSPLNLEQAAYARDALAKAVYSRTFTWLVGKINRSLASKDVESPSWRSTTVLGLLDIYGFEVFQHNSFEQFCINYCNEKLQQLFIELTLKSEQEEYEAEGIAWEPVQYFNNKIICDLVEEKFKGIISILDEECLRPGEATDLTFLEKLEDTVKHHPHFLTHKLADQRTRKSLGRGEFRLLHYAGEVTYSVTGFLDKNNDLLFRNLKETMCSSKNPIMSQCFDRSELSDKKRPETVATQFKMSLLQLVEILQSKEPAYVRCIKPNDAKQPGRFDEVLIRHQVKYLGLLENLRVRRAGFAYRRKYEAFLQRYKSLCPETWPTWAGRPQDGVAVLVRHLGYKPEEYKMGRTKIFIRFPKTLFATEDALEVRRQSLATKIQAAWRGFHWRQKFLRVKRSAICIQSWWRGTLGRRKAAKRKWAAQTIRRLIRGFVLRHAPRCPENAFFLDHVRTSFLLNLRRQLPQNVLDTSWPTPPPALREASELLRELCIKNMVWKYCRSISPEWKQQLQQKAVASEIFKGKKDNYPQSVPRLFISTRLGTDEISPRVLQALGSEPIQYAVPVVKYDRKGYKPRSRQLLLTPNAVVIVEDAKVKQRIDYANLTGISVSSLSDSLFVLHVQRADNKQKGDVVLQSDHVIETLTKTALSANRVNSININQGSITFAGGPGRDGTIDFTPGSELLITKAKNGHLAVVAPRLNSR

For experiment [2] the target is unchanged. Put plainly: co-IP; lysate of H/Cavin-3 cells (H1299 stably expressing cavin-3); IP with anti-myosin-1c, Protein A/G beads, immunoblot. (In western blotting, separated proteins are transferred to a membrane and probed.)

Results are given in words; binding and its absence hold for the method and conditions named. In cells and extracts the contact can be indirect. Some binding calls cover weakened binding; strength is not graded here.

This passage reports binding results from article PMC3780650.

B1: Cavin-3 (protein, UniProt Q969G5 1-261)
chain: MRESALERGPVPEAPAGGPVHAVTVVTLLEKLASMLETLRERQGGLARRQGGLAGSVRRIQSGLGALSRSHDTTSNTLAQLLAKAERVSSHANAAQERAVRRAAQVQRLEANHGLLVARGKLHVLLFKEEGEVPASAFQKAPEPLGPADQSELGPEQLEAEVGESSDEEPVESRAQRLRRTGLQKVQSLRRALSGRKGPAAPPPTPVKPPRLGPGRSAEAQPEAQPALEPTLEPEPPQDTEEDPGRPGAAEEALLQMESVA
For the molecule B1, the binding entry in experiment [1] is “binds”.

B2: Cavin-3 stably expressed in H1299 cells (H/Cavin-3 cells) (protein, UniProt Q969G5 1-261)
chain: MRESALERGPVPEAPAGGPVHAVTVVTLLEKLASMLETLRERQGGLARRQGGLAGSVRRIQSGLGALSRSHDTTSNTLAQLLAKAERVSSHANAAQERAVRRAAQVQRLEANHGLLVARGKLHVLLFKEEGEVPASAFQKAPEPLGPADQSELGPEQLEAEVGESSDEEPVESRAQRLRRTGLQKVQSLRRALSGRKGPAAPPPTPVKPPRLGPGRSAEAQPEAQPALEPTLEPEPPQDTEEDPGRPGAAEEALLQMESVA
For B2, in experiment [2], the binding entry is on record as “binds”.
